# From doi:10.1101/2025.06.19.660543
# The chains behind the UniProt entries cited, without tags or fusion partners.
# UniProt P38936: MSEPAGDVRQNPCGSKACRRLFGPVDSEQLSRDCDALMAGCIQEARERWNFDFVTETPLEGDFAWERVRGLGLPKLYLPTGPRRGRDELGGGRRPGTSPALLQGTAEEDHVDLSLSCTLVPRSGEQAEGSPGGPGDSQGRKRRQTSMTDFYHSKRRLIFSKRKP
# UniProt P30281: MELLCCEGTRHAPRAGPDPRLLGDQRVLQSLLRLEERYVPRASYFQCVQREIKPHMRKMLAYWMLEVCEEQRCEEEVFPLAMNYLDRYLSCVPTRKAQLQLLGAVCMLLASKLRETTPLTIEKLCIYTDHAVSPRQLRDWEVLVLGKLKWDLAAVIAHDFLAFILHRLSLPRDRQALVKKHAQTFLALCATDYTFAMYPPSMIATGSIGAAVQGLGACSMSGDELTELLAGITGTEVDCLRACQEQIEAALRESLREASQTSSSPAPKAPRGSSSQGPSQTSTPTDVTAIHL
# Results are given in words; binding and its absence hold for the method and conditions named. Binding seen in cells or lysates may run through a third protein. Some results given as binding are weak or reduced against the parent protein; the word gives no strength.
# Assays:
# [1] = molecular target: CDKN1A (p21Cip/Waf1) (human (endogenous in HCT116)) (UniProt P38936); assay: co-IP
# [2] = molecular target: cyclin D3 (CCND3), endogenous (human (endogenous in HCT116)) (UniProt P30281); assay: co-IP
Substance,binding [1],binding [2]
"cyclin D3 (CCND3), endogenous (from UniProt P30281 1-292)",binds,
CDKN1A (p21Cip/Waf1) (from UniProt P38936 1-164),,binds
endogenous CCND3 phosphorylated at Thr283 (from UniProt P30281 1-292),binds,
